Some of the results follow. These are further read-outs of the screen, such as a control signal, another cell line or another target. No call is given for them. Most of these compounds were active or inconclusive in the main read-out, so they are no random draw. Words in brackets tell the shape of the fitted curve; partial curves, single points and poor fits give uncertain potencies.

This assay can be described thus: qHTS Assay for Lipid Storage Modulators in Drosophila S3 Cells.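 As to cell number change: cells counted by Cell Tracker Red CMTPX staining in the red channel.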 As to conditions: BODIPY lipid droplet fluorescence, 18-24 h; for cell number change: measured here: cell count max response, cells fed with added oleic acid. In short, it runs like this:
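Laser-scanning cytometry quantifies lipid droplet accumulation (500–530 nm total intensity; droplet/cell object ratio) in oleic acid-fed (400 uM added) Drosophila S3 cells treated with a concentration series. 20 uM Triacsin C defined 100% inhibition.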
In general terms: Quantitative high-throughput screening tests each substance at several concentrations.

Setting [1] is: measured here: cell number channel AC50, cells fed with added oleic acid.
Where [2] appears, read: measured here: lipid fluorescence (Fed channel) AC50, cells fed with added oleic acid.

In general, AC50 refers to the concentration giving half of the maximal activity seen. Lower therefore signals greater potency. Take `CN(C)c1cc(N/N=C/c2ccc(Cl)cc2)nc(N(C)C)n1`: the cell number change is -36.7%. Further, the AC50 under setting [1] was 29.1 µM [falling, single point].
As to `O=C(OCCN1C(=O)c2cccc3c(N4CCOCC4)ccc(c23)C1=O)c1ccccc1Cl`, the cell number change was -10.1%.
As to `CCOP1(=O)OCC2OC(n3cnc4c(N)ncnc43)C(O)C2O1` (stereo unspecified), the cell number change was -2.99%. For the same compound, under setting [1], the AC50 was 2.59 µM [rising, single point].
In the case of `O=C(Nc1ccc(-c2csc(-c3ccccc3)n2)cc1)c1ccccc1`, the cell number change is -58.2%. Also, the AC50 under setting [1] is 23.1 µM [falling, single point]. The AC50 under setting [2] is 23.1 µM [falling, single point].
Consider `COc1cc(C(=O)N2CCN(S(=O)(=O)c3cccc(F)c3)CC2)ccc1OCC(=O)N1CCOCC1`, for which the AC50 reads like this: under setting [1], 0.103 µM [falling, full curve, poor fit]; under setting [2], 29.1 µM [rising, single point].
For `CCOc1ccccc1NC(=O)c1cc(C(=O)Nc2ccccc2OCC)cc(N2C(=O)CCC2=O)c1`, the cell number change was -1.49%. Moreover, the AC50 under setting [1] was 6.51 µM [falling, single point].
Take `Cc1ccc(C(c2nnnn2CC2CCCO2)N2CCN(c3cccc(C)c3C)CC2)cc1` (stereo unspecified): the cell number change was -18.8%. Also, the AC50 under setting [2] is 4.61 µM [rising, full curve].
Regarding `Cn1cc(CN2CCCC(C(=O)Nc3cccc(-n4cccn4)c3)C2)cn1` (stereo unspecified), the cell number change worked out at 18.2%.
In the case of `CC(=O)NC(CC(=O)Nc1nc(-c2ccccc2)c(C(C)=O)s1)c1ccccc1` (stereo unspecified), the cell number change was -1.28%. Under setting [2], the AC50 was 25.9 µM [falling, single point].
For `C=CCn1c(Cc2csc(N)n2)nnc1SCC(=O)OCC`, the cell number change is -14.8%. Moreover, under setting [2], the AC50 was 25.9 µM [falling, partial curve].
On to `CCCC1(c2ccccc2)NC(=O)N(CC(=O)NCc2ccc(C)cc2)C1=O` (stereo unspecified), for which the cell number change is 93.7%. Moreover, under setting [1], the AC50 is 23.1 µM [rising, partial curve]. The AC50 under setting [2] was 29.1 µM [rising, single point].
As for `Cc1nc2ccc(C(=O)N3CCSCC3)cc2s1`, the cell number change worked out at 10.8%. Further, under setting [2], the AC50 was 0.651 µM [falling, partial curve, poor fit].
In the case of `CC(C)Sc1nc2ccccc2n1CC(N)=O`, the cell number change came to 6.59%. In addition, the AC50 under setting [2] was 1.16 µM [falling, full curve, poor fit].
Take `O=c1cc(CN2CCN(Cc3ccc(F)cc3)C(CCO)C2)[nH]c2ccccc12` (stereo unspecified): the cell number change came to 7.62%. For the same compound, under setting [2], the concentration at half-maximal activity (AC50) is 0.116 µM [rising, full curve, poor fit].
As for `Cc1ccc(S(=O)(=O)NCC(=O)OCC(=O)N(C)C2CCCCC2)cc1`, the cell number change was -6.22%. Moreover, the AC50 under setting [2] is 2.31 µM [rising, partial curve].
Turning to `CCOP(=O)(C1=C(O)C(=O)C(C(C)(C)C)=CC1=O)c1ccccc1` (stereo unspecified), the cell number change is -71.5%. Also, the concentration at half-maximal activity (AC50) under setting [2] is 29.1 µM [falling, single point].
As for `CC(c1ccco1)N(C(=O)c1ccc(Cl)s1)c1ccccn1` (stereo unspecified), the cell number change was -24%.
For `Cc1cc(C)cc(OCC(=O)Nc2ccc(F)cc2)c1`, the cell number change was -43.2%. The AC50 under setting [1] was 20.6 µM [falling, partial curve].
With `CC1CCN(C(=O)c2ccc(CSc3ccc(Cl)cc3)cc2)CC1`, the cell number change is 5.83%. Further, the AC50 under setting [2] was 14.6 µM [rising, partial curve, poor fit].
Turning to `COc1ccccc1NC(=O)c1ccc(S(=O)(=O)N(C)C)cc1`, the AC50 under setting [1] is 6.51 µM [rising, single point].
In the case of `COc1cccc(N2CCN(CC(=O)Nc3nc(C)c(C(=O)N(C)C)s3)CC2)c1`, the cell number change is 43.9%. For the same compound, the AC50 under setting [1] is 16.4 µM [rising, partial curve, poor fit]. Moreover, the AC50 under setting [2] was 18.4 µM [rising, partial curve].
In the case of `Cc1[nH]c2ccccc2c1SCc1nnc(SCc2ccccc2)n1C`, the cell number change was -23%.
Turning to `Cn1c(=O)[nH]c(=O)c2c1nc(NN)n2CCOc1ccccc1`, under setting [2], the AC50 is 2.91 µM [rising, single point].
As to `COCCn1c(=NC(=O)CCS(=O)(=O)c2ccccc2)sc2cc(F)ccc21`, the cell number change is -1.73%. Further, the AC50 under setting [2] was 6.51 µM [rising, single point].
On to `CCC(C)(C)NC(=O)c1ccc2c(c1)N(CC(=O)OC)C(=O)C(C)(C)O2`, for which the cell number change is -14.3%. Further, the AC50 under setting [2] was 16.4 µM [falling, single point].
`CCN1CCN(CCNC(=O)c2cc(Cl)c(NC(=O)C3=C(C)OCCS3)cc2OC)CC1`: the cell number change turned out to be 19%. In addition, the AC50 under setting [2] is 29.1 µM [rising, single point].
In the case of `CC(C)Cn1cnc2c(N)nc3ccccc3c21`, the cell number change was -0.326%. Further, the AC50 under setting [2] is 29.1 µM [falling, single point].
As for `Cn1nnnc1SCC(=O)Nc1ccc(Oc2ccc(Cl)cc2)cc1`, the cell number change was found to be 10.4%. Moreover, under setting [2], the AC50 was 23.1 µM [rising, single point].
In the case of `Cc1ccc(CSCC(=O)Nc2ccccc2F)cc1`, the cell number change worked out at 19.1%. The AC50 under setting [1] is 0.164 µM [falling, full curve, poor fit]. In addition, the AC50 under setting [2] was 0.146 µM [falling, full curve].
Regarding `O=C(NCCN=C1NS(=O)(=O)c2ccccc21)c1ccccc1`, the cell number change was 5.86%. For the same compound, the AC50 under setting [2] was 29.1 µM [falling, single point].
With `C=C(C)Cn1c(C)cc(C)c(S(=O)(=O)c2cccc(C)c2)c1=O`, the cell number change is -46%. For the same compound, under setting [1], the AC50 was 25.9 µM [falling, single point]. Moreover, under setting [2], the AC50 was 23.1 µM [falling, single point].
Consider `COc1ccc2oc(=N)c(C(=O)Nc3ccccc3Cl)cc2c1`, for which the cell number change was -11.1%. Moreover, under setting [1], the AC50 is 6.51 µM [falling, single point].
Regarding `Cc1ccc(C)c(NC(=O)COC(=O)c2cc(=O)c3ccccc3o2)c1`, the AC50 under setting [1] is 6.51 µM [rising, single point].
`CC(C)(CCO)NC(=S)NC1CC2C=CC1C2` (stereo unspecified): the cell number change is -1.32%. Under setting [1], the AC50 was 6.51 µM [falling, single point]. Under setting [2], the AC50 is 4.61 µM [falling, single point].
For the compound `CCN(Cc1ccccc1)C(=O)COC(=O)c1c(C)nsc1NC`, the cell number change amounted to 1.25%. The AC50 under setting [2] is 0.517 µM [rising, single point].
`CC1(C(=O)NCc2ccccn2)C=CCN1C(=O)c1ccccc1` (stereo unspecified): the cell number change turned out to be 5.11%. Also, the AC50 under setting [2] is 0.651 µM [rising, partial curve, poor fit].
On to `Cc1c(C(=O)Nc2ccccn2)oc2c(Cl)cccc12`, for which the cell number change is 44.2%. The AC50 under setting [1] is 4.11 µM [rising, full curve, poor fit]. Also, the AC50 under setting [2] is 1.46 µM [rising, partial curve].
`Cc1nn(C)cc1C(C)NC(=O)c1cc(COc2cccc3cnccc23)on1` (stereo unspecified): the cell number change is -35.2%. Also, under setting [1], the AC50 is 18.4 µM [falling, single point].

The values above are taken from PubChem BioAssay AID2685 (National Center for Advancing Translational Sciences (NCATS), 2010).
